Measured values as given in the supplement of paper PMC10849652.
The other results are listed elsewhere or left out.

Chains of the proteins cited; added tags and fusions are not shown. Lines headed by an entry give the natural chain unless they say otherwise; changes in a name come on top.
UniProt P61956, whole entry, looked up: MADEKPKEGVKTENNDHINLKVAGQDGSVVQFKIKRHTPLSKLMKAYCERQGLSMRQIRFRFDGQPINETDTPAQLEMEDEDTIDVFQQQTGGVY
UniProt P26639: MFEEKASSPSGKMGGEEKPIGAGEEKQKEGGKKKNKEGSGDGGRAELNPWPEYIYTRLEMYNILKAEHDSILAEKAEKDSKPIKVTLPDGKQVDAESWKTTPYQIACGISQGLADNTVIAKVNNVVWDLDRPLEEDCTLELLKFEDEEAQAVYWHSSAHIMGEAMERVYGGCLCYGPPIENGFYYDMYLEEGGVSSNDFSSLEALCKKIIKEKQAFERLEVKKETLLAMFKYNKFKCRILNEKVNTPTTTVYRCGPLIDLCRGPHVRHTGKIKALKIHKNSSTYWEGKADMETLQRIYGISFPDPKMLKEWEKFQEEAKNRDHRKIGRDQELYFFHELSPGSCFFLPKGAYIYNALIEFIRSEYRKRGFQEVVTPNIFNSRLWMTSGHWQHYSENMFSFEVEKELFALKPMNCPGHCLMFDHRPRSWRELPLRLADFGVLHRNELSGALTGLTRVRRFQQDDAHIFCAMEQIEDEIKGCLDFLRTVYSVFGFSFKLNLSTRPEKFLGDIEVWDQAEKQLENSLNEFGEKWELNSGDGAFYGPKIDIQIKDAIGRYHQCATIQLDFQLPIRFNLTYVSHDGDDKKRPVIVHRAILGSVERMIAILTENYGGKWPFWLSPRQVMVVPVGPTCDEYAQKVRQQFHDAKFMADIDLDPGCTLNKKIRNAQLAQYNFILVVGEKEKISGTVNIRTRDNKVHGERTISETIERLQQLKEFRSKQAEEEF
UniProt Q7L7X3: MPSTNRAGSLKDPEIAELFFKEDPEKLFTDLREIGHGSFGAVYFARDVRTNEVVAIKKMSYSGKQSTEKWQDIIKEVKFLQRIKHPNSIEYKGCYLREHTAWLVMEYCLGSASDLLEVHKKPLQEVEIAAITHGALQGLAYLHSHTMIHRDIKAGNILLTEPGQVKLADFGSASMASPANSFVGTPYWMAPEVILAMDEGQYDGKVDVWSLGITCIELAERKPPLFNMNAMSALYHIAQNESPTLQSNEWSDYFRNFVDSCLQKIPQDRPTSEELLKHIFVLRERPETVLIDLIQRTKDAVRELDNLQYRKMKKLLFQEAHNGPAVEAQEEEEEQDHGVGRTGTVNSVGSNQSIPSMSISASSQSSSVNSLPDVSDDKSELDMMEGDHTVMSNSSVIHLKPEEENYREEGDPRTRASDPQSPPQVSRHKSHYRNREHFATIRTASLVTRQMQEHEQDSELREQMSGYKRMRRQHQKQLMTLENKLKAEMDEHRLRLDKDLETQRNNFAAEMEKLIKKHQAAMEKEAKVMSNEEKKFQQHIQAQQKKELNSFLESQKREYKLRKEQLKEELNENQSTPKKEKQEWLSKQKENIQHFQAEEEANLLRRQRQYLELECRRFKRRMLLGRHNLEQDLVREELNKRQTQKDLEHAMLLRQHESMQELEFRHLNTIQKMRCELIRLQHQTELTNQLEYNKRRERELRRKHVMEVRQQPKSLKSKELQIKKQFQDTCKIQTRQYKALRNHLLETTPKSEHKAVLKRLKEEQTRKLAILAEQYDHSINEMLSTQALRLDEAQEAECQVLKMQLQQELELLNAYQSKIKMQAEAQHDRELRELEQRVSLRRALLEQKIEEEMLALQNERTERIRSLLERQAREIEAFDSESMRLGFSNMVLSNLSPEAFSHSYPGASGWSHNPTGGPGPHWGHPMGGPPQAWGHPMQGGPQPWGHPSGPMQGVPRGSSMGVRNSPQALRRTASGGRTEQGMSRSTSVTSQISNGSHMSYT
UniProt Q9UH65: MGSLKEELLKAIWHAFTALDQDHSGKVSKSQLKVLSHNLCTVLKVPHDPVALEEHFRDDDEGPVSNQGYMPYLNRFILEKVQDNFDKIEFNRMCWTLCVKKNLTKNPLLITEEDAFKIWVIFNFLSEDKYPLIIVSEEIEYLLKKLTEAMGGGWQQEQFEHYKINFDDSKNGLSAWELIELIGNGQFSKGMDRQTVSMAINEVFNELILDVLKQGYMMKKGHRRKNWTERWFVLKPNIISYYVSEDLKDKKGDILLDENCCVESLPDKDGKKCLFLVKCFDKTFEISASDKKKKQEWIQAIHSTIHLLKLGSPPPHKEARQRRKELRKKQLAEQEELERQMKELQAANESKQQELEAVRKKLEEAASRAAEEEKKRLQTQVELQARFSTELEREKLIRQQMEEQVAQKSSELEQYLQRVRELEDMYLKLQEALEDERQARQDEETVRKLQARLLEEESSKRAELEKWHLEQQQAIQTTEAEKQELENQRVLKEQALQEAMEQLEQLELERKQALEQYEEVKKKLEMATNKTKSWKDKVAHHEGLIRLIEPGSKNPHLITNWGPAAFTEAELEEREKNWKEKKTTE
UniProt Q8NBJ7: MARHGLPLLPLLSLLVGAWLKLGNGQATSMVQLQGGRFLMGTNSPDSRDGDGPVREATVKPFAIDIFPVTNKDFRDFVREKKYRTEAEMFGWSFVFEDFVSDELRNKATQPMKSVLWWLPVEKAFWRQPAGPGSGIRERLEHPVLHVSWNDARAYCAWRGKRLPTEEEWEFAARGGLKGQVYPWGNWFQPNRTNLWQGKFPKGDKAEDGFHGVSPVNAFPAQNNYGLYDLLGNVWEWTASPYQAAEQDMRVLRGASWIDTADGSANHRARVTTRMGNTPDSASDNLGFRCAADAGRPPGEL
UniProt O60506: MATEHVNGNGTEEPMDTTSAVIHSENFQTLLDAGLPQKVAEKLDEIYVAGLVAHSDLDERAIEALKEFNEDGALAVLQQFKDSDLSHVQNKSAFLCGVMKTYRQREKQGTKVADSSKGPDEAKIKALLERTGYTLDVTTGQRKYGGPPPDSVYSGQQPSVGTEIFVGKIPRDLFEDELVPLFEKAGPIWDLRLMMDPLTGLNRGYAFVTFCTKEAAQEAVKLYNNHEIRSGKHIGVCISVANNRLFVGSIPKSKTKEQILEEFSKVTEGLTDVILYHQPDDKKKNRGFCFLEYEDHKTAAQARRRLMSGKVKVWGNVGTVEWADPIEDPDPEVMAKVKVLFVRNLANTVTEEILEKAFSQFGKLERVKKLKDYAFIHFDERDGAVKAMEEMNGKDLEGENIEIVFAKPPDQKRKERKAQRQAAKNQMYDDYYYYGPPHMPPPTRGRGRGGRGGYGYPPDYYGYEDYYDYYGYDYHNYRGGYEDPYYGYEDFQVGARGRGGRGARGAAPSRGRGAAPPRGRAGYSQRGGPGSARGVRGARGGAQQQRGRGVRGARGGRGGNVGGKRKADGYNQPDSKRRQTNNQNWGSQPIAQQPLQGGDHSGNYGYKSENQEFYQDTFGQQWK
UniProt Q16594, whole entry, looked up: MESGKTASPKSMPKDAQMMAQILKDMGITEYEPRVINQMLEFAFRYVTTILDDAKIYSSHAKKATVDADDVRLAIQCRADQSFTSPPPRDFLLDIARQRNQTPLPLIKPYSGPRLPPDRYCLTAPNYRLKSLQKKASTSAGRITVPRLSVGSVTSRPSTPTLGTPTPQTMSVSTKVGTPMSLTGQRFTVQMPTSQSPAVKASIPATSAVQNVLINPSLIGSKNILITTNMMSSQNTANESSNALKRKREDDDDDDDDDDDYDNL
UniProt Q9NRP7: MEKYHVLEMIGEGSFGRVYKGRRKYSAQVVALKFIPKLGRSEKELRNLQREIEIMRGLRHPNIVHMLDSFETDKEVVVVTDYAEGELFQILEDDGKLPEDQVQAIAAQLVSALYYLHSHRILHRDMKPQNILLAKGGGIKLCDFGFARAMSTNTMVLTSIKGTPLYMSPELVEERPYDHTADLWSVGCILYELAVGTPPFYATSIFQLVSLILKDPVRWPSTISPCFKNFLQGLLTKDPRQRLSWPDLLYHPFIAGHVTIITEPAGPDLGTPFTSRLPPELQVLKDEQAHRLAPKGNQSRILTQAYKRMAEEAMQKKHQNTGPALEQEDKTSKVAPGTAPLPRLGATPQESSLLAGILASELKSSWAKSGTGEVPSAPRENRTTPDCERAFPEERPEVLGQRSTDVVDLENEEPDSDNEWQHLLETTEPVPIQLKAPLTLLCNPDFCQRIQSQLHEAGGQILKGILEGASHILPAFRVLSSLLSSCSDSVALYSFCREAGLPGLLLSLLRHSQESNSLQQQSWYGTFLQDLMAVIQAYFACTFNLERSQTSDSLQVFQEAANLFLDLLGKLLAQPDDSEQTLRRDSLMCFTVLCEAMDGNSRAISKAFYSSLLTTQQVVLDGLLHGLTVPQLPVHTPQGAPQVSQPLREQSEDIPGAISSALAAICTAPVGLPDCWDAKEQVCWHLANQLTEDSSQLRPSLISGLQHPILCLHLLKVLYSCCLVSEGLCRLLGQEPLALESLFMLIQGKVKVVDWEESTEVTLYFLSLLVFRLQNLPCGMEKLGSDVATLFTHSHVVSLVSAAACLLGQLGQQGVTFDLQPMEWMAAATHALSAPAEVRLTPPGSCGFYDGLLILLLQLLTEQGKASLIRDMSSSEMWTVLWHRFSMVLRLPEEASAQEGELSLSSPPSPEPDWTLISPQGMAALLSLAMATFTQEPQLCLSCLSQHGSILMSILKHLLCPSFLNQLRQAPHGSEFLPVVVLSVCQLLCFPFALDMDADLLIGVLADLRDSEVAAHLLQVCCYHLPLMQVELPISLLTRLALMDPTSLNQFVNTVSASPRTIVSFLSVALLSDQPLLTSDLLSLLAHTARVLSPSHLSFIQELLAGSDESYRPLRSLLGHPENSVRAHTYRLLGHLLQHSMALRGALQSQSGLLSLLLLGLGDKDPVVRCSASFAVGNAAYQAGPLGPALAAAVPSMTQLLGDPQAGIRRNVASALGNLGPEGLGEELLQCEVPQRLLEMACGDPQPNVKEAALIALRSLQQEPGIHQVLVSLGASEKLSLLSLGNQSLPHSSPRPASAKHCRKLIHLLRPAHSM

Key:
Assay in all cases: log2 fold change, soluble protein after heating vs DMSO (PISA); higher = thermal stabilisation; K562 cells, 10 uM, 30 min; active = over 0.2 and 3.5 SD of the protein, either way, in both replicates (recomputed)
[1] = compound: C1=CC=C(C=C1)[C@H](COC2=CC3=C(C=C2)NC(=O)N3)NC(=O)C4=CC=CN(C4=O)CC5=CC(=C(C=C5)F)F
Summary of the method: (§1)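 K562 cells at 2×10^6 cells/mL were treated for 30 min with 10 μM compound, and aliquots were heated for 3 min over 48°C-58°C before pooling. Extraction used PBS with 0.5% NP-40 at 4°C, and soluble protein was the supernatant after 21,000xg for 90 min, measured by TMTpro 16plex LC-MS/MS with channel sums equalised. Thermal stability values, relative to control samples and from duplicates, are log2 fold changes.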

[2] = compound: CC1=C(SC2=C1C(=N[C@H](C3=NN=C(N32)C)CC(=O)N)C4=CC=C(C=C4)Cl)C
Summary of the method: as §1

[3] = compound: CC1=C2C(=CC=C1)N=C(N(C2=O)C3=CC=CC=C3C)CN4C=NC5=C(N=CN=C54)N
Summary of the method: as §1

[4] = compound: Cc1sc2c(c1C)C(c1ccc(Cl)cc1)=N[C@@H](CC(=O)OC(C)(C)C)c1nnc(C)n1-2
Summary of the method: as §1

[5] = compound: c1ccc([C@@H]2C[C@H]2NC2CCNCC2)cc1
Summary of the method: as §1

Measured: log2 fold change

SUMO2 (UniProt P61956)
inactive: [1] 0.145 | [2] 0.021 | [3] -0.189 | [4] 0.12 | [5] 0.187

TARS1 (UniProt P26639)
inactive: [1] -0.043 | [2] 0.034 | [3] 0.017 | [4] 0.012 | [5] -0.015

TAOK1 (UniProt Q7L7X3)
inactive: [1] 0.057 | [2] 0.095 | [3] 0.041 | [4] 0.012 | [5] 0.002

SWAP70 (UniProt Q9UH65)
inactive: [1] -0.028 | [2] 0.016 | [3] 0.044 | [4] -0.002 | [5] 0.039

SUMF2 (UniProt Q8NBJ7)
inactive: [1] 0 | [2] 0.002 | [3] -0.019 | [4] -0.004 | [5] -0.002

SYNJ2BP-COX16, A0A087WYV9
inactive: [1] 0.038 | [2] -0.022 | [3] 0.013 | [4] 0.004 | [5] 0.021

2 neighbouring records from above, quoted:
SWAP70 (UniProt Q9UH65)
inactive: [1] -0.028 | [2] 0.016 | [3] 0.044 | [4] -0.002 | [5] 0.039

SUMF2 (UniProt Q8NBJ7)
inactive: [1] 0 | [2] 0.002 | [3] -0.019 | [4] -0.004 | [5] -0.002

(cont.)

SYNCRIP (UniProt O60506)
inactive: [1] 0.055 | [2] -0.15 | [3] -0.089 | [4] 0.152 | [5] 0.017

TAF9 (UniProt Q16594)
inactive: [1] 0.046 | [2] -0.043 | [3] -0.114 | [4] 0.049 | [5] 0.019

TACO1 (UniProt Q9BSH4)
inactive: [1] -0.013 | [2] 0.098 | [3] 0.028 | [4] -0.067 | [5] -0.034

STK36 (UniProt Q9NRP7)
inactive: [1] 0
